The effect of the compound repeats well; differences between the knockouts mostly do not.
Test system: MDA-MB-231
Assay: relative cell number vs DMSO control (72 h) (% of DMSO); higher = less growth inhibition (more cells)
Experimental: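 QMAP-Seq: a pool of 5 breast cancer cell lines (ZR-75-1, SKBR3, HCC-38, MDA-MB-231, BT-20), each carrying 12 doxycycline-inducible Cas9 sgRNA perturbations (11 knockouts plus non-targeting sgNT), was treated with compounds for 72 h at four 10-fold doses (10 nM-10 uM or 1 nM-1 uM range). Barcodes were amplified and sequenced, and cell number was interpolated from 293T spike-in standard curves. The result is expressed as % of the median of DMSO wells. Two biological replicates.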

Cc1nc(Nc2n[nH]c3c2CN(C(=O)N[C@H](CN(C)C)c2ccccc2)C3(C)C)c2sccc2n1
Conditions | relative cell number
sgRNA knockout: sgATF3, 10 nM | 48.6
sgRNA knockout: sgATF3, 100 nM | 35.1
sgRNA knockout: sgATF3, 1000 nM | 14.6
sgRNA knockout: sgATF3, 10000 nM | 2.38
sgRNA knockout: sgATF4, 10 nM | 44.8
sgRNA knockout: sgATF4, 100 nM | 44.4
sgRNA knockout: sgATF4, 1000 nM | 15.4
sgRNA knockout: sgATF4, 10000 nM | 4.12
sgRNA knockout: sgATF6, 10 nM | 54.4
sgRNA knockout: sgATF6, 100 nM | 41
sgRNA knockout: sgATF6, 1000 nM | 11.6
sgRNA knockout: sgATF6, 10000 nM | 4.25
sgRNA knockout: sgATG7, 10 nM | 47.1
sgRNA knockout: sgATG7, 100 nM | 37.4
sgRNA knockout: sgATG7, 1000 nM | 10.8
sgRNA knockout: sgATG7, 10000 nM | 6.36
sgRNA knockout: sgERN1, 10 nM | 49
sgRNA knockout: sgERN1, 100 nM | 39.4
sgRNA knockout: sgERN1, 1000 nM | 17.8
sgRNA knockout: sgERN1, 10000 nM | 4.77
sgRNA knockout: sgHSF1, 10 nM | 46.7
sgRNA knockout: sgHSF1, 100 nM | 24.8
sgRNA knockout: sgHSF1, 1000 nM | 14.6
sgRNA knockout: sgHSF1, 10000 nM | 3.52
sgRNA knockout: sgHSF2, 10 nM | 48.4
sgRNA knockout: sgHSF2, 100 nM | 35.3
sgRNA knockout: sgHSF2, 1000 nM | 12.4
sgRNA knockout: sgHSF2, 10000 nM | 2.6
sgRNA knockout: sgKEAP1, 10 nM | 42.2
sgRNA knockout: sgKEAP1, 100 nM | 36.6
sgRNA knockout: sgKEAP1, 1000 nM | 11.1
sgRNA knockout: sgKEAP1, 10000 nM | 3.96
sgRNA knockout: sgNFE2L2, 10 nM | 45.6
sgRNA knockout: sgNFE2L2, 100 nM | 30.01
sgRNA knockout: sgNFE2L2, 1000 nM | 13.6
sgRNA knockout: sgNFE2L2, 10000 nM | 3.66
sgRNA knockout: sgSLC35F2, 10 nM | 48.1
sgRNA knockout: sgSLC35F2, 100 nM | 25.4
sgRNA knockout: sgSLC35F2, 1000 nM | 19.7
sgRNA knockout: sgSLC35F2, 10000 nM | 5.09
sgRNA knockout: sgXBP1, 10 nM | 41.1
sgRNA knockout: sgXBP1, 100 nM | 39.9
sgRNA knockout: sgXBP1, 1000 nM | 10.4
sgRNA knockout: sgXBP1, 10000 nM | 6.91

CCCS(=O)(=O)Nc1ccc(F)c(C(=O)c2c[nH]c3ncc(Cl)cc23)c1F [PLX4720]
Conditions | relative cell number
sgRNA knockout: sgATF3, 10 nM | 92.2
sgRNA knockout: sgATF3, 100 nM | 72.2
sgRNA knockout: sgATF3, 1000 nM | 96.8
sgRNA knockout: sgATF3, 10000 nM | 101
sgRNA knockout: sgATF4, 10 nM | 133
sgRNA knockout: sgATF4, 100 nM | 90
sgRNA knockout: sgATF4, 1000 nM | 83.7
sgRNA knockout: sgATF4, 10000 nM | 113
sgRNA knockout: sgATF6, 10 nM | 92.9
sgRNA knockout: sgATF6, 100 nM | 88.5
sgRNA knockout: sgATF6, 1000 nM | 131
sgRNA knockout: sgATF6, 10000 nM | 86.1
sgRNA knockout: sgATG7, 10 nM | 106
sgRNA knockout: sgATG7, 100 nM | 78.8
sgRNA knockout: sgATG7, 1000 nM | 123
sgRNA knockout: sgATG7, 10000 nM | 102
sgRNA knockout: sgERN1, 10 nM | 85
sgRNA knockout: sgERN1, 100 nM | 105
sgRNA knockout: sgERN1, 1000 nM | 90.4
sgRNA knockout: sgERN1, 10000 nM | 92.3
sgRNA knockout: sgHSF1, 10 nM | 98.7
sgRNA knockout: sgHSF1, 100 nM | 82.5
sgRNA knockout: sgHSF1, 1000 nM | 108
sgRNA knockout: sgHSF1, 10000 nM | 86.9
sgRNA knockout: sgHSF2, 10 nM | 105.92
sgRNA knockout: sgHSF2, 100 nM | 89.8
sgRNA knockout: sgHSF2, 1000 nM | 72
sgRNA knockout: sgHSF2, 10000 nM | 93.5
sgRNA knockout: sgKEAP1, 10 nM | 101
sgRNA knockout: sgKEAP1, 100 nM | 120
sgRNA knockout: sgKEAP1, 1000 nM | 76.8
sgRNA knockout: sgKEAP1, 10000 nM | 116
sgRNA knockout: sgNFE2L2, 10 nM | 97.4
sgRNA knockout: sgNFE2L2, 100 nM | 111
sgRNA knockout: sgNFE2L2, 1000 nM | 95.1
sgRNA knockout: sgNFE2L2, 10000 nM | 97.3
sgRNA knockout: sgSLC35F2, 10 nM | 97.2
sgRNA knockout: sgSLC35F2, 100 nM | 96.9
sgRNA knockout: sgSLC35F2, 1000 nM | 121
sgRNA knockout: sgSLC35F2, 10000 nM | 108
sgRNA knockout: sgXBP1, 10 nM | 85
sgRNA knockout: sgXBP1, 100 nM | 95.6
sgRNA knockout: sgXBP1, 1000 nM | 87.7
sgRNA knockout: sgXBP1, 10000 nM | 94

C[C@H]1CCC/C=C/[C@@H]2C[C@H](O)C[C@H]2[C@H](O)/C=C/C(=O)O1 [BrefeldinA]
Conditions | relative cell number
sgRNA knockout: sgATF3, 10 nM | 122
sgRNA knockout: sgATF3, 100 nM | 12.3
sgRNA knockout: sgATF3, 1000 nM | 3.85
sgRNA knockout: sgATF3, 10000 nM | 5.56
sgRNA knockout: sgATF4, 10 nM | 108
sgRNA knockout: sgATF4, 100 nM | 8.76
sgRNA knockout: sgATF4, 1000 nM | 2.47
sgRNA knockout: sgATF4, 10000 nM | 10.3
sgRNA knockout: sgATF6, 10 nM | 103
sgRNA knockout: sgATF6, 100 nM | 13.7
sgRNA knockout: sgATF6, 1000 nM | 5.19
sgRNA knockout: sgATF6, 10000 nM | 4.61
sgRNA knockout: sgATG7, 10 nM | 102
sgRNA knockout: sgATG7, 100 nM | 10.2
sgRNA knockout: sgATG7, 1000 nM | 4.82
sgRNA knockout: sgATG7, 10000 nM | 6.37
sgRNA knockout: sgERN1, 10 nM | 105
sgRNA knockout: sgERN1, 100 nM | 14.6
sgRNA knockout: sgERN1, 1000 nM | 3.55
sgRNA knockout: sgERN1, 10000 nM | 5.72
sgRNA knockout: sgHSF1, 10 nM | 84.4
sgRNA knockout: sgHSF1, 100 nM | 11.2
sgRNA knockout: sgHSF1, 1000 nM | 7.97
sgRNA knockout: sgHSF1, 10000 nM | 6.49
sgRNA knockout: sgHSF2, 10 nM | 83.7
sgRNA knockout: sgHSF2, 100 nM | 10.6
sgRNA knockout: sgHSF2, 1000 nM | 5.09
sgRNA knockout: sgHSF2, 10000 nM | 4.65
sgRNA knockout: sgKEAP1, 10 nM | 106
sgRNA knockout: sgKEAP1, 100 nM | 10.9
sgRNA knockout: sgKEAP1, 1000 nM | 6.62
sgRNA knockout: sgKEAP1, 10000 nM | 6.02
sgRNA knockout: sgNFE2L2, 10 nM | 98.7
sgRNA knockout: sgNFE2L2, 100 nM | 14.8
sgRNA knockout: sgNFE2L2, 1000 nM | 5.28
sgRNA knockout: sgNFE2L2, 10000 nM | 5.96
sgRNA knockout: sgSLC35F2, 10 nM | 119
sgRNA knockout: sgSLC35F2, 100 nM | 14.4
sgRNA knockout: sgSLC35F2, 1000 nM | 5.75
sgRNA knockout: sgSLC35F2, 10000 nM | 6.35
sgRNA knockout: sgXBP1, 10 nM | 106
sgRNA knockout: sgXBP1, 100 nM | 20.4
sgRNA knockout: sgXBP1, 1000 nM | 6.83
sgRNA knockout: sgXBP1, 10000 nM | 7.55

— the supplement of paper PMC7661543
